Assay results published in publication PMC4287573.
No constants are given. Whether binding was seen depends on the method and setting. In cells and extracts the contact can be indirect. Some entries that bind do so weakly or less than the wild type.

Chains of the proteins cited; added tags and fusions are not shown. Residues count along the entry.
HCV non-structural protein NS3 (Q99IB8, residues 1031-1661): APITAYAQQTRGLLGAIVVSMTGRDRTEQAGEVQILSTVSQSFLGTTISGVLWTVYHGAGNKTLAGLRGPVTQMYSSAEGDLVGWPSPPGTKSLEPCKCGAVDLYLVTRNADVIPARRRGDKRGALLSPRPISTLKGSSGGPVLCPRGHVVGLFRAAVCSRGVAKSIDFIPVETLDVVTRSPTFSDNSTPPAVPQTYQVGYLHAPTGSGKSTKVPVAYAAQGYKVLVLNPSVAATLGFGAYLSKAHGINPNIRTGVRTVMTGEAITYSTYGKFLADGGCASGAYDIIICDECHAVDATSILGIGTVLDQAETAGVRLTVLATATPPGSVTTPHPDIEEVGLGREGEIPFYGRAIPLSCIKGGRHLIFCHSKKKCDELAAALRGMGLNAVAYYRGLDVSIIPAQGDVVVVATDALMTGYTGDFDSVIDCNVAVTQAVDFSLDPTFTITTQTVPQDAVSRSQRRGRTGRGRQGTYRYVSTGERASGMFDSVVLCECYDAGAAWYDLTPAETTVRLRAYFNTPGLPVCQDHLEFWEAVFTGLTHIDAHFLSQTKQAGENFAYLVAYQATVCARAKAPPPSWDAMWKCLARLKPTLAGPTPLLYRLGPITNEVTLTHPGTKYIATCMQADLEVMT
HCV non-structural protein NS5A (Q99IB8, residues 1977-2442): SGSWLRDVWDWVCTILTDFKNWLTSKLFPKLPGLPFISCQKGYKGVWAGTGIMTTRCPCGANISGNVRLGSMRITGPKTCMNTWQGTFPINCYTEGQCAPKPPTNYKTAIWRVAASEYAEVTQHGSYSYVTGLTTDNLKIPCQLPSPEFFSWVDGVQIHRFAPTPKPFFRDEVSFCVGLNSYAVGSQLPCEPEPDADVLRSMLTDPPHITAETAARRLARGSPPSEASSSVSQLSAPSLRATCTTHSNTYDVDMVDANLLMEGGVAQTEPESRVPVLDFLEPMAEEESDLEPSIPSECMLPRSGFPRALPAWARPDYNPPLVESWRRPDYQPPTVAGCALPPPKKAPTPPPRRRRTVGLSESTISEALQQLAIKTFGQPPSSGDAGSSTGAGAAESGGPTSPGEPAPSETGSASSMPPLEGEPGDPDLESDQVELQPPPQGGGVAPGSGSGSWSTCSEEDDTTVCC

Legend:
[1] = biological target: HA-tagged HNRNPK deletion mutant ΔNLS (human) (UniProt P61978); test: co-IP; anti-HA agarose beads on lysates of Huh7.5 cells stably expressing HA-tagged HNRNPK or its deletion mutants, 48 h after electroporation with a subgenomic JFH1 replicon or genomic HCV RNA; lysis buffer 20 mM Tris-HCl pH 7.5, 0.5% Nonidet P-40, 1 mM sodium deoxycholate, 100 mM NaCl; 3 h at 4°C; elution with HA peptide; immunoblot; cells with non-tagged HNRNPK as control
[2] = biological target: HA-tagged HNRNPK (heterogeneous nuclear ribonucleoprotein K), wild type (human) (UniProt P61978); test: as above

Substance	binding [1]	binding [2]
HCV non-structural protein NS3 (from UniProt Q99IB8 1031-1661)	binds	
HCV non-structural protein NS5A (from UniProt Q99IB8 1977-2442)		no binding
